# Measurements: ChEMBL document CHEMBL4316593 (Eur J Med Chem, 2019)
# Further values from the same series stand in other lists.
# Columns and labels:
# Assay type in all cases: cell-based
# Details in all cases: U-87MG ATCC
# [1] = Inhibition of RTK/PI3K/AKT/mTOR signaling in human U87 cells assessed as down regulation of VPS18 gene expression at cytotoxic IC50 measured after 48 hrs relative to control
# [2] = Inhibition of RTK/PI3K/AKT/mTOR signaling in human U87 cells assessed as down regulation of POMP gene expression at cytotoxic IC50 measured after 48 hrs relative to control
# [3] = Inhibition of RTK/PI3K/AKT/mTOR signaling in human U87 cells assessed as up regulation of signal peptidase complex subunit 2 gene expression at cytotoxic IC50 measured after 48 hrs relative to control
# [4] = Inhibition of RTK/PI3K/AKT/mTOR signaling in human U87 cells assessed as down regulation of HGS gene expression at cytotoxic IC50 measured after 48 hrs relative to control
# [5] = Inhibition of RTK/PI3K/AKT/mTOR signaling in human U87 cells assessed as up regulation of SMU1 gene expression at cytotoxic IC50 measured after 48 hrs relative to control
# [6] = Inhibition of RTK/PI3K/AKT/mTOR signaling in human U87 cells assessed as up regulation of PKD1 gene expression at cytotoxic IC50 measured after 48 hrs relative to control
# [7] = Inhibition of RTK/PI3K/AKT/mTOR signaling in human U87 cells assessed as down regulation of SQOR gene expression at cytotoxic IC50 measured after 48 hrs relative to control
# [8] = Inhibition of RTK/PI3K/AKT/mTOR signaling in human U87 cells assessed as up regulation of GALNT9 gene expression at cytotoxic IC50 measured after 48 hrs relative to control
# [9] = Inhibition of RTK/PI3K/AKT/mTOR signaling in human U87 cells assessed as up regulation of SLC7A2 gene expression at cytotoxic IC50 measured after 48 hrs relative to control
# [10] = Inhibition of RTK/PI3K/AKT/mTOR signaling in human U87 cells assessed as up regulation of proline rich 11 gene expression at cytotoxic IC50 measured after 48 hrs relative to control
# [11] = Inhibition of RTK/PI3K/AKT/mTOR signaling in human U87 cells assessed as down regulation of DCLRE1B gene expression at cytotoxic IC50 measured after 48 hrs relative to control
# [12] = Inhibition of RTK/PI3K/AKT/mTOR signaling in human U87 cells assessed as down regulation of YWHAH gene expression at cytotoxic IC50 measured after 48 hrs relative to control
# [13] = Inhibition of RTK/PI3K/AKT/mTOR signaling in human U87 cells assessed as down regulation of LSM11 gene expression at cytotoxic IC50 measured after 48 hrs relative to control
# [14] = Inhibition of RTK/PI3K/AKT/mTOR signaling in human U87 cells assessed as down regulation of TINF2 gene expression at cytotoxic IC50 measured after 48 hrs relative to control
# [15] = Inhibition of RTK/PI3K/AKT/mTOR signaling in human U87 cells assessed as down regulation of RMDN3 gene expression at cytotoxic IC50 measured after 48 hrs relative to control
# [16] = Inhibition of RTK/PI3K/AKT/mTOR signaling in human U87 cells assessed as down regulation of MTMR6 gene expression at cytotoxic IC50 measured after 48 hrs relative to control
# [17] = Inhibition of RTK/PI3K/AKT/mTOR signaling in human U87 cells assessed as up regulation of SHC1 gene expression at cytotoxic IC50 measured after 48 hrs relative to control
# [18] = Inhibition of RTK/PI3K/AKT/mTOR signaling in human U87 cells assessed as down regulation of MTF1 gene expression at cytotoxic IC50 measured after 48 hrs relative to control
# [19] = Inhibition of RTK/PI3K/AKT/mTOR signaling in human U87 cells assessed as up regulation of glyceraldehyde-3-phosphate dehydrogenase gene expression at cytotoxic IC50 measured after 48 hrs relative to control
# [20] = Inhibition of RTK/PI3K/AKT/mTOR signaling in human U87 cells assessed as down regulation of ARL8B gene expression at cytotoxic IC50 measured after 48 hrs relative to control
# [21] = Inhibition of RTK/PI3K/AKT/mTOR signaling in human U87 cells assessed as down regulation of YTHDC1 gene expression at cytotoxic IC50 measured after 48 hrs relative to control
# [22] = Inhibition of RTK/PI3K/AKT/mTOR signaling in human U87 cells assessed as down regulation of NEDD4L gene expression at cytotoxic IC50 measured after 48 hrs relative to control
# [23] = Inhibition of RTK/PI3K/AKT/mTOR signaling in human U87 cells assessed as down regulation of MTMR9 gene expression at cytotoxic IC50 measured after 48 hrs relative to control
# [24] = Inhibition of RTK/PI3K/AKT/mTOR signaling in human U87 cells assessed as up regulation of MYO18A gene expression at cytotoxic IC50 measured after 48 hrs relative to control
# [25] = Inhibition of RTK/PI3K/AKT/mTOR signaling in human U87 cells assessed as up regulation of RB transcriptional corepressor like 2 gene expression at cytotoxic IC50 measured after 48 hrs relative to control
# [26] = Inhibition of RTK/PI3K/AKT/mTOR signaling in human U87 cells assessed as down regulation of GLYR1 gene expression at cytotoxic IC50 measured after 48 hrs relative to control
# [27] = Inhibition of RTK/PI3K/AKT/mTOR signaling in human U87 cells assessed as down regulation of CDC6 gene expression at cytotoxic IC50 measured after 48 hrs relative to control
# [28] = Inhibition of RTK/PI3K/AKT/mTOR signaling in human U87 cells assessed as up regulation of NOTCH1 gene expression at cytotoxic IC50 measured after 48 hrs relative to control
# [29] = Inhibition of RTK/PI3K/AKT/mTOR signaling in human U87 cells assessed as down regulation of GPRIN1 gene expression at cytotoxic IC50 measured after 48 hrs relative to control
# [30] = Inhibition of RTK/PI3K/AKT/mTOR signaling in human U87 cells assessed as down regulation of ADAT1 gene expression at cytotoxic IC50 measured after 48 hrs relative to control
# [31] = Inhibition of RTK/PI3K/AKT/mTOR signaling in human U87 cells assessed as down regulation of GAS6 gene expression at cytotoxic IC50 measured after 48 hrs relative to control
# [32] = Inhibition of RTK/PI3K/AKT/mTOR signaling in human U87 cells assessed as down regulation of ATP10D gene expression at cytotoxic IC50 measured after 48 hrs relative to control
# [33] = Inhibition of RTK/PI3K/AKT/mTOR signaling in human U87 cells assessed as up regulation of casein kinase 1 gamma 2 gene expression at cytotoxic IC50 measured after 48 hrs relative to control
smiles,measurement,setting,value
CC(=O)C(=NNc1ccccc1C#N)C(C)=O,log2FC,[1],-0.798
same,log2FC,[2],-0.567
same,log2FC,[3],0.737
same,log2FC,[4],-0.609
same,log2FC,[5],0.467
same,log2FC,[6],0.587
same,log2FC,[7],-1.32
same,log2FC,[8],2.2
same,log2FC,[9],2.1
same,log2FC,[10],0.662
same,log2FC,[11],-1.17
same,log2FC,[12],-0.453
same,log2FC,[13],-1.1
same,log2FC,[14],-0.711
same,log2FC,[15],-0.961
same,log2FC,[16],-0.883
same,log2FC,[17],0.52
same,log2FC,[18],-0.909
same,log2FC,[19],1.14
same,log2FC,[20],-0.572
same,log2FC,[21],-0.578
same,log2FC,[22],-0.692
same,log2FC,[23],-1.1
same,log2FC,[24],0.521
same,log2FC,[25],1.03
same,log2FC,[26],-0.751
same,log2FC,[27],-1.06
same,log2FC,[28],0.636
same,log2FC,[29],-0.891
same,log2FC,[30],-1.15
same,log2FC,[31],-0.943
same,log2FC,[32],-2.13
same,log2FC,[33],0.834
